The text below walks through data of ChEMBL document CHEMBL1153423, “Identification and characterization of small molecule inhibitors of a class I histone deacetylase from Plasmodium falciparum” (J Med Chem, 2009).

This test has as its system Plasmodium falciparum. Kind of test: Antimalarial activity against Plasmodium falciparum 3D7 by [3H]hypoxanthine uptake. The format is functional, organism-based.

With `O=C(CCCCCCC(=O)Nc1ccccc1)NO` [VORINOSTAT], the IC50 – broadly, the midpoint of a concentration-inhibition curve – was found to be 210 nM.
